{"source": "patent US8574882B2", "about": "“Thermostable 1,5-anhydroglucitol dehydrogenase, and method for measurement of 1,5-anhydroglucitol by using the same” (Nippon Kayaku Kabushiki Kaisha, priority 2008, dated 2013)", "molecules": {"B1": {"name": "Ver. 7.1: thermostable 1,5-AG dehydrogenase, SEQ ID NO: 23; Ver. 7.0 plus G4A (protein)", "chain": "MEFAGQPDIVIIGTGIGGASIAAGLSASGADILILETGESLPDRPENRDQHAIFQRGFFRPKEFWYETDGTPFNPGNYYNVGGNSKFYGAVLMRYRREDFEELAHLEGVSPAWPFAYDELEPWYCKAEELFQVRGELGDDPTEPYHSKPYSYPAIRDESPIADMRARLKKAGLHPASLPLGVDIERWLAKAKTPWDAHPNSNDGKMDAETCPLALALKHPNVGLETSARVTKLEAGPDGKTIVAVHYVKNGEALVLRPKLVILSAGAVQSAALLLRSGLANRSDQVGRNFMNHNASAVIGFDPRYRNDSVYQKTFGFNDYYLSDGAGGPPLGNVQLLGRVSGAILKSYMRQVPEWFLNRIARHTIDFYAMSEDLPSPESRVSVDGDRIILHWVRSNWKAHLMLVDKLKSALRAAGFPVVLSRAFDRRTPSHQCGTVRIGDNPATAPLDPYCRAYDHPNLYVVDASFLPTSAAVNPALTIAAQALRVADHLNREVLA", "modifications": "Mutated 1,5-anhydroglucitol dehydrogenase gene", "notes": "Ver; 7.0 plus G4A"}}, "assay": "Assay of 1,5-AG by colorimetry (WST-1, HITACHI 7020)", "details": "450 nm / 570 nm", "data": [{"molecule": "B1", "values": [{"measurement": "Increase in absorbance", "setting": "standard solution 0 μg/mL 1,5-AG in saline", "result": 0.0025}, {"measurement": "Increase in absorbance", "setting": "standard solution 50 μg/mL 1,5-AG in saline", "result": 0.146}]}]}
